PubChem BioAssay AID1259308 | NCATS – 2017

- Test: 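Candidate targets for better recombinant protein yield in mammalian cells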 (primary screen)
- Cells: human HEK293 embryonic kidney cells stably expressing firefly luciferase (HEK-CMV-Luc2-Hygro)
- Knock-down reagent: single siRNA against human genes, 0.8 pmol siRNA per well
- Time to read-out: 72 h
- Measured: 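Reporter luminescence and viable-cell signal on separate replicate plates, given as percent of non-targeting control and median/MAD z-scores, plus per-cell luciferase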
- Direction: total luciferase, z-score and total luciferase, % of control: higher = more reporter protein produced
- Hit rule: 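Active when the median/MAD z-score for overall luciferase is greater than 3; a gene was taken forward for validation with new siRNAs if at least two of its three siRNAs passed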
- Meaning of the calls: active = raised luciferase; inactive = no rise
Here is an unselected part of about 59,000 reagents tested. Of all reagents, about 1,510 (2.6%) were called active. 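Calls use total luciferase alone and ignore viability, so some active siRNAs may act by altering cell number.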 The numbers tell different reagents against one gene apart. Further read-outs or replicates are left out here. No sequences are given here.

| gene knocked down | siRNA no. | total luciferase, z-score | total luciferase, % of control | Outcome |
| --- | --- | --- | --- | --- |
| TBL1X | 1 | 0.345 | 88.7 | inactive |
| TBL1X | 2 | -0.996 | 62.1 | inactive |
| TBL1X | 3 | -0.171 | 78.5 | inactive |
| TMEM154 | 1 | 1.92 | 120 | inactive |
| TMEM154 | 2 | -0.715 | 67.7 | inactive |
| TMEM154 | 3 | -0.783 | 66.3 | inactive |
| CEP250 | 1 | -0.786 | 66.3 | inactive |
| CEP250 | 2 | -0.267 | 76.6 | inactive |
| CEP250 | 3 | -0.44 | 73.1 | inactive |
| MFHAS1 | 1 | -0.7 | 68 | inactive |
| MFHAS1 | 2 | -0.548 | 71 | inactive |
| MFHAS1 | 3 | -1.54 | 51.3 | inactive |
| ASB18 | 1 | -0.723 | 67.5 | inactive |
| ASB18 | 2 | -0.666 | 68.6 | inactive |
| ASB18 | 3 | -0.523 | 71.5 | inactive |
| CDS1 | 1 | 0.0851 | 83.6 | inactive |
| CDS1 | 2 | -1.73 | 47.4 | inactive |
| CDS1 | 3 | 1.38 | 109 | inactive |
| NOSTRIN | 1 | -0.287 | 76.2 | inactive |
| NOSTRIN | 2 | 0.194 | 85.7 | inactive |
| NOSTRIN | 3 | -0.396 | 74 | inactive |
| SPART-AS1 | 1 | -0.498 | 72 | inactive |
| SPART-AS1 | 2 | -0.521 | 71.5 | inactive |
| SPART-AS1 | 3 | 0.361 | 89.1 | inactive |

4 of these entries, reformatted.
gene knocked down | siRNA no. | total luciferase, z-score | total luciferase, % of control | Outcome
CEP250 | 2 | -0.267 | 76.6 | inactive
CEP250 | 3 | -0.44 | 73.1 | inactive
MFHAS1 | 1 | -0.7 | 68 | inactive
MFHAS1 | 2 | -0.548 | 71 | inactive
